The record followed here is the supplement of paper PMC12889115.

The test system of the assay is Salmonella enterica serovar Typhimurium SL1344. In words: bacterial growth OD600 after 18 h with compound and polymyxin B; higher = more bacterial growth (less inhibition). To be noted: 50 µM, Mueller-Hinton broth.

The structures appear in SMILES notation. The list shows a part of the results. These are raw signals, not scaled to a control.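 Primary screen: polymyxin B was added at a level permeabilizing Salmonella outer membranes while sparing inner membranes. DMSO wells, both with and without polymyxin B, established maximum growth. Plate-to-plate variation meant each plate was ranked on its own, and the lowest-OD600 compounds were selected as hits.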

As to `COc1cccc(C(C)N(C)C(=O)c2cn(Cc3ccccc3F)nn2)c1` (stereo not given), the “bacterial growth OD600” value (polymyxin B 1 µg/mL) worked out at 0.774.

Consider `Cc1ccc(CCC(=O)N2CCOc3c(cc(-c4cccnc4)cc3OCCc3cccs3)C2)cc1`, for which the “bacterial growth OD600” value (polymyxin B 0.75 µg/mL) was 0.72.

As to `COC(=O)C1CCCCN1Cc1c(C(=O)N(C)CCc2ccccc2)nc2sccn12` (stereo not given), for the setting “polymyxin B 1 µg/mL”, the “bacterial growth OD600” value amounted to 0.873.

Regarding `CN(Cc1n[nH]c2c1CCCC2)C(=O)Cn1nnnc1CN1CCCCCC1`, the “bacterial growth OD600” value (polymyxin B 0.75 µg/mL) stood at 0.826.

As to `COc1ccc(CN2CCOc3ccc(CN4CCN(Cc5ccccn5)CC4)cc3C2)cc1C`, the “bacterial growth OD600” value (polymyxin B 0.75 µg/mL) was determined as 0.791.

In the case of `CCCCN(C)C(=O)c1nc2ccccn2c1CN1CCN(c2cccc(Cl)c2)CC1`, the “bacterial growth OD600” value (polymyxin B 1 µg/mL) amounted to 0.001.

`CCC(CC)C(=O)N1CCCC1C(=O)Nc1ccccc1Oc1cccnc1` (stereo not given): the “bacterial growth OD600” value (polymyxin B 1 µg/mL) was 1.16.

As to `CCOC(=O)C1(CCc2ccccc2)CCN(C(=O)C2=C(C)OCCO2)CC1`, under “polymyxin B 1 µg/mL”, the “bacterial growth OD600” value stood at 0.02.

As to `CCC(CC)C(=O)N(Cc1cc2cc3c(cc2nc1N1CCOCC1)CCC3)CC1CCCO1` (stereo not given), the “bacterial growth OD600” value (polymyxin B 0.75 µg/mL) was 0.824.

As to `O=C(NCc1ccc(F)cc1)C1CCCN(C2CCN(C(=O)C3CC3)CC2)C1` (stereo not given), the “bacterial growth OD600” value (polymyxin B 0.75 µg/mL) amounted to 0.712.

`Cc1cc(CN(C)C(=O)c2ccccc2OC2CCN(Cc3ccccn3)CC2)on1`: the “bacterial growth OD600” value (polymyxin B 1 µg/mL) was 0.992.

`O=C(NCc1ccc2c(c1)OCO2)c1ccc(N2CCC(NCCCOc3cccnc3)CC2)cc1`: for the setting “polymyxin B 0.75 µg/mL”, the “bacterial growth OD600” value came out at 0.776.

Regarding `COCC(C)NC(=O)c1coc(COc2cccc(F)c2)n1` (stereo not given), the “bacterial growth OD600” value (polymyxin B 1 µg/mL) turned out to be 0.906.

Take `COc1ccccc1Oc1ncccc1CNC(=O)C1=NNC(=O)CC1`: for the setting “polymyxin B 1 µg/mL”, the “bacterial growth OD600” value was determined as 1.07.

On to `Cc1cc(F)ccc1NC(=O)CCC1CCCN(C(=O)Cn2cccn2)C1` (stereo not given), for which, for the setting “polymyxin B 1 µg/mL”, the “bacterial growth OD600” value was determined as 0.964.

Take `CCOC(=O)N1CCN(Cc2ccc3c(c2)CN(C(=O)Cn2cnc4ccccc42)CCO3)CC1`: the “bacterial growth OD600” value (polymyxin B 0.75 µg/mL) stood at 0.85.

For the molecule `Cc1ccoc1C(=O)N1CCC(CCC(=O)N2CCN(c3ccccc3)CC2)CC1`, where the note is “polymyxin B 1 µg/mL”, the “bacterial growth OD600” value was found to be 0.9.

Regarding `c1ccc(CCCN2CCCC(NCc3ccco3)C2)cc1` (stereo not given), under “polymyxin B 1 µg/mL”, the “bacterial growth OD600” value was found to be 0.842.

For the molecule `O=C(c1cccc(Cl)c1)C1CCCN(S(=O)(=O)c2ccc(F)c(F)c2)C1` (stereo not given), the “bacterial growth OD600” value (polymyxin B 1 µg/mL) was 0.91.

Consider `CCN(CCO)Cc1nc(-c2ccccc2)no1`, for which the “bacterial growth OD600” value (polymyxin B 1 µg/mL) is 0.91.

As to `CCOC(=O)C1(Cc2ccc(F)cc2F)CCCN(C(=O)c2cc3ccccc3cn2)C1` (stereo not given), the “bacterial growth OD600” value (polymyxin B 1 µg/mL) came out at 0.122.

Turning to `C=C(C)CN(CC)C(=O)C1CCCN(C2CCN(Cc3ccccc3)CC2)C1` (stereo not given), the “bacterial growth OD600” value (polymyxin B 0.75 µg/mL) came out at 0.766.

Take `O=C(c1ccccn1)N1CCOC(CCc2ccccc2)C1` (stereo not given): the “bacterial growth OD600” value (polymyxin B 0.75 µg/mL) was 0.873.

For the molecule `COCc1ccc(C(=O)Nc2ccc(-c3nc(CNC(=O)c4cc(CC(C)C)on4)c(C)o3)cc2)o1`, the “bacterial growth OD600” value (polymyxin B 0.75 µg/mL) was found to be 0.006.

Take `COc1ccc2cc(C(=O)C3CCCN(Cc4cnn(C)c4)C3)ccc2c1` (stereo not given): the “bacterial growth OD600” value (polymyxin B 1 µg/mL) worked out at 0.873.

Take `Cc1cccc(-c2cnc(-c3ccncc3)nc2C2CCN(C(=O)c3cc(CC(C)C)on3)CC2)c1`: the “bacterial growth OD600” value (polymyxin B 0.75 µg/mL) amounted to 0.

On to `CCOC(=O)C1(Cc2cccc(OC)c2)CCCN(Cc2ccc(COC)o2)C1` (stereo not given), for which the “bacterial growth OD600” value (polymyxin B 1 µg/mL) worked out at 0.934.

As for `CSCCC(=O)N1CCCC(CCc2ccccc2)C1` (stereo not given), the “bacterial growth OD600” value (polymyxin B 0.75 µg/mL) was determined as 0.8.

For the molecule `Cc1ccc(CC2(CCC(=O)N(C)Cc3ccc(-n4cccn4)cc3)CCC(=O)N2)cc1` (stereo not given), the “bacterial growth OD600” value (polymyxin B 0.75 µg/mL) stood at 0.849.

On to `COc1ccc(C(=O)N2CCC(C(Cc3ccccc3C)N(C)C(=O)Cn3cccn3)CC2)cc1F` (stereo not given), for which the “bacterial growth OD600” value (polymyxin B 0.75 µg/mL) was 0.854.
